In the supplement of paper PMC7661543:
Differences between knockout arms are mostly noise.

System: HCC-38
Assay: relative cell number vs DMSO control (72 h) (% of DMSO); higher = less growth inhibition (more cells)
Procedure: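 QMAP-Seq: a pool of 5 breast cancer cell lines (ZR-75-1, SKBR3, HCC-38, MDA-MB-231, BT-20), each carrying 12 doxycycline-inducible Cas9 sgRNA perturbations (11 knockouts plus non-targeting sgNT), was treated with compounds for 72 h at four 10-fold doses (10 nM-10 uM or 1 nM-1 uM range). Barcodes were amplified and sequenced, and cell number was interpolated from 293T spike-in standard curves. The result is expressed as % of the median of DMSO wells. Two biological replicates.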

COc1cc2nccc(Oc3ccc(NC(=O)C4(C(=O)Nc5ccc(F)cc5)CC4)cc3)c2cc1OC [Cabozantinib]
Details | relative cell number
sgRNA knockout: sgATF3, 10 nM | 90.8
sgRNA knockout: sgATF3, 100 nM | 93
sgRNA knockout: sgATF3, 1000 nM | 91.7
sgRNA knockout: sgATF3, 10000 nM | 64.4
sgRNA knockout: sgATF4, 10 nM | 80.4
sgRNA knockout: sgATF4, 100 nM | 95.8
sgRNA knockout: sgATF4, 1000 nM | 92.8
sgRNA knockout: sgATF4, 10000 nM | 64.2
sgRNA knockout: sgATF6, 10 nM | 105
sgRNA knockout: sgATF6, 100 nM | 110
sgRNA knockout: sgATF6, 1000 nM | 96.1
sgRNA knockout: sgATF6, 10000 nM | 68.8
sgRNA knockout: sgATG7, 10 nM | 77
sgRNA knockout: sgATG7, 100 nM | 93.1
sgRNA knockout: sgATG7, 1000 nM | 97.5
sgRNA knockout: sgATG7, 10000 nM | 60.2
sgRNA knockout: sgERN1, 10 nM | 97.2
sgRNA knockout: sgERN1, 100 nM | 95
sgRNA knockout: sgERN1, 1000 nM | 96.6
sgRNA knockout: sgERN1, 10000 nM | 58.8
sgRNA knockout: sgHSF1, 10 nM | 121
sgRNA knockout: sgHSF1, 100 nM | 98.9
sgRNA knockout: sgHSF1, 1000 nM | 107
sgRNA knockout: sgHSF1, 10000 nM | 71.3
sgRNA knockout: sgHSF2, 10 nM | 99.1
sgRNA knockout: sgHSF2, 100 nM | 99.8
sgRNA knockout: sgHSF2, 1000 nM | 109
sgRNA knockout: sgHSF2, 10000 nM | 61.656
sgRNA knockout: sgKEAP1, 10 nM | 116
sgRNA knockout: sgKEAP1, 100 nM | 92.9
sgRNA knockout: sgKEAP1, 1000 nM | 117
sgRNA knockout: sgKEAP1, 10000 nM | 62.9
sgRNA knockout: sgNFE2L2, 10 nM | 79
sgRNA knockout: sgNFE2L2, 100 nM | 88.9
sgRNA knockout: sgNFE2L2, 1000 nM | 95.2
sgRNA knockout: sgNFE2L2, 10000 nM | 68.3
sgRNA knockout: sgSLC35F2, 10 nM | 84.2
sgRNA knockout: sgSLC35F2, 100 nM | 91
sgRNA knockout: sgSLC35F2, 1000 nM | 102
sgRNA knockout: sgSLC35F2, 10000 nM | 59.8
sgRNA knockout: sgXBP1, 10 nM | 78.6
sgRNA knockout: sgXBP1, 100 nM | 98
sgRNA knockout: sgXBP1, 1000 nM | 95.3
sgRNA knockout: sgXBP1, 10000 nM | 60.6

CC(C)C[C@H](NC(=O)[C@H](CCc1ccccc1)NC(=O)CN1CCOCC1)C(=O)N[C@@H](Cc1ccccc1)C(=O)N[C@@H](CC(C)C)C(=O)[C@@]1(C)CO1 [Carfilzomib]
Details | relative cell number
sgRNA knockout: sgATF3, 1 nM | 76.2
sgRNA knockout: sgATF3, 10 nM | 35.4
sgRNA knockout: sgATF3, 100 nM | 8.84
sgRNA knockout: sgATF3, 1000 nM | 4.58
sgRNA knockout: sgATF4, 1 nM | 79.1
sgRNA knockout: sgATF4, 10 nM | 34.7
sgRNA knockout: sgATF4, 100 nM | 6.77
sgRNA knockout: sgATF4, 1000 nM | 4.9
sgRNA knockout: sgATF6, 1 nM | 84
sgRNA knockout: sgATF6, 10 nM | 32.2
sgRNA knockout: sgATF6, 100 nM | 9.49
sgRNA knockout: sgATF6, 1000 nM | 4.46
sgRNA knockout: sgATG7, 1 nM | 82.1
sgRNA knockout: sgATG7, 10 nM | 30.8
sgRNA knockout: sgATG7, 100 nM | 8.79
sgRNA knockout: sgATG7, 1000 nM | 4.62
sgRNA knockout: sgERN1, 1 nM | 85.4
sgRNA knockout: sgERN1, 10 nM | 34
sgRNA knockout: sgERN1, 100 nM | 9.12
sgRNA knockout: sgERN1, 1000 nM | 5.67
sgRNA knockout: sgHSF1, 1 nM | 73.7
sgRNA knockout: sgHSF1, 10 nM | 25.9
sgRNA knockout: sgHSF1, 100 nM | 11.5
sgRNA knockout: sgHSF1, 1000 nM | 4.48
sgRNA knockout: sgHSF2, 1 nM | 73.1
sgRNA knockout: sgHSF2, 10 nM | 33.3
sgRNA knockout: sgHSF2, 100 nM | 9.42
sgRNA knockout: sgHSF2, 1000 nM | 5.11
sgRNA knockout: sgKEAP1, 1 nM | 85.8
sgRNA knockout: sgKEAP1, 10 nM | 37.8
sgRNA knockout: sgKEAP1, 100 nM | 8.8
sgRNA knockout: sgKEAP1, 1000 nM | 5.5
sgRNA knockout: sgNFE2L2, 1 nM | 79.1
sgRNA knockout: sgNFE2L2, 10 nM | 33.8
sgRNA knockout: sgNFE2L2, 100 nM | 7.23
sgRNA knockout: sgNFE2L2, 1000 nM | 5.28
sgRNA knockout: sgSLC35F2, 1 nM | 73
sgRNA knockout: sgSLC35F2, 10 nM | 33.3
sgRNA knockout: sgSLC35F2, 100 nM | 8.63
sgRNA knockout: sgSLC35F2, 1000 nM | 5.5
sgRNA knockout: sgXBP1, 1 nM | 80.7
sgRNA knockout: sgXBP1, 10 nM | 31.8
sgRNA knockout: sgXBP1, 100 nM | 8.43
sgRNA knockout: sgXBP1, 1000 nM | 5.66

N.N.[Cl][Pt][Cl] [Cisplatin]
Details | relative cell number
sgRNA knockout: sgATF3, 10 nM | 111
sgRNA knockout: sgATF3, 100 nM | 76.5
sgRNA knockout: sgATF3, 1000 nM | 104
sgRNA knockout: sgATF3, 10000 nM | 96.1
sgRNA knockout: sgATF4, 10 nM | 112
sgRNA knockout: sgATF4, 100 nM | 75.7
sgRNA knockout: sgATF4, 1000 nM | 105
sgRNA knockout: sgATF4, 10000 nM | 86
sgRNA knockout: sgATF6, 10 nM | 110
sgRNA knockout: sgATF6, 100 nM | 88.5
sgRNA knockout: sgATF6, 1000 nM | 110
sgRNA knockout: sgATF6, 10000 nM | 93.9
sgRNA knockout: sgATG7, 10 nM | 112
sgRNA knockout: sgATG7, 100 nM | 79.3
sgRNA knockout: sgATG7, 1000 nM | 104
sgRNA knockout: sgATG7, 10000 nM | 89.75
sgRNA knockout: sgERN1, 10 nM | 115
sgRNA knockout: sgERN1, 100 nM | 81.7
sgRNA knockout: sgERN1, 1000 nM | 108
sgRNA knockout: sgERN1, 10000 nM | 93.83
sgRNA knockout: sgHSF1, 10 nM | 93.9
sgRNA knockout: sgHSF1, 100 nM | 84.9
sgRNA knockout: sgHSF1, 1000 nM | 108
sgRNA knockout: sgHSF1, 10000 nM | 105
sgRNA knockout: sgHSF2, 10 nM | 110
sgRNA knockout: sgHSF2, 100 nM | 81.5
sgRNA knockout: sgHSF2, 1000 nM | 94.71
sgRNA knockout: sgHSF2, 10000 nM | 95
sgRNA knockout: sgKEAP1, 10 nM | 95.3
sgRNA knockout: sgKEAP1, 100 nM | 85.9
sgRNA knockout: sgKEAP1, 1000 nM | 97.6
sgRNA knockout: sgKEAP1, 10000 nM | 107
sgRNA knockout: sgNFE2L2, 10 nM | 113
sgRNA knockout: sgNFE2L2, 100 nM | 75.3
sgRNA knockout: sgNFE2L2, 1000 nM | 115
sgRNA knockout: sgNFE2L2, 10000 nM | 77
sgRNA knockout: sgSLC35F2, 10 nM | 114
sgRNA knockout: sgSLC35F2, 100 nM | 80.6
sgRNA knockout: sgSLC35F2, 1000 nM | 105
sgRNA knockout: sgSLC35F2, 10000 nM | 88.6
sgRNA knockout: sgXBP1, 10 nM | 110
sgRNA knockout: sgXBP1, 100 nM | 79.1
sgRNA knockout: sgXBP1, 1000 nM | 105.8
sgRNA knockout: sgXBP1, 10000 nM | 88.9
